Key:
[1] = Coreflooding of fractured cores, vertical (Example 2); details: core 1, 1H NMR
Procedure: Experimental Procedure for Coreflooding. […] The Indiana limestone cores have the common dimensions with a diameter of 0.0254 m and a length of 0.127 m. The cores were saturated with RB first and then oil, during which the core properties were measured, such as porosity, permeability, and water and oil saturations.
It includes an accumulator for crude oil, a pump, a Hassler-type core holder, a hydraulic manual pump to maintain the overburden pressure, a differential pressure gauge, cylinders, and an oven. After a core was placed in the core holder, oil was injected into the cores at 100 cm^3/h and 347 K until no water production was observed.
An artificial fracture was created along the longitudinal axis using an electric saw for each core (FIG. 20). By following the procedure of Mejia, Teflon spacers with 0.001 m in width and 0.127 m in length were placed along two edges of the fracture to maintain a fracture aperture. Then, the core halves were carefully put together with the Teflon spacers in the fracture, wrapped with a Teflon tube, and placed inside a vertically oriented coreholder.
FIG. 21 provides a schematic of the experimental setup for coreflooding. It consists of accumulators for crude oil, RB, and chemical solution (3-pentanone or surfactant), a pump, a Hassler-type core holder, a hydraulic manual pump to maintain the overburden pressure, a differential pressure gauge, cylinders, and an oven. […] After a fractured core was placed in the coreholder, the oven temperature was increased to reservoir temperature (347 K). Then, the core was flooded with crude oil to remove any gas inside the fracture and measure the fracture permeability using the flow rate of 900 cm^3/h. The overburden pressure was adjusted so that all cores used in this research had similar fracture apertures and fracture permeabilities.
Fracture permeabilities were calculated. The equation for flow between parallel plates b=(3πdke)^1/3 was used to estimate a fracture aperture, where b is the fracture aperture, d is the core diameter, and ke is the effective oil permeability of the fractured core. […] Af and Am are cross-sectional areas of the fracture and matrix, respectively. kf and km are permeabilities of the fracture and matrix, respectively.
The initial RB stage was at 6 cm^3/h for 1.5 pore volumes injected (PVI), then at 0.05 cm^3/h for 0.3-0.4 PVI, and at 6 cm^3/h until there was no oil production. After that, a chemical slug (3-pentanone or surfactant) was injected at 0.6 cm^3/h for 1.6 PVI. Finally, the chase RB was injected at 0.6 cm^3/h. […] However, it was terminated after 1.2 PVI of the chase RB for core 1 because of operational constraints.
The coreflood effluent was collected in plastic graduating cylinders at room temperature. To correct the oil recovery factor for 3-pentanone solubility in oil, the 3-pentanone concentration in recovered oil was measured by the proton nuclear magnetic resonance (H NMR) method for the chemical slug and chase RB flooding periods for core 1.

[2] = Spontaneous imbibition in Amott cells; details: initial 1.1 wt % 3p in RB, 347 K, 1H NMR

## CCC(=O)CC [3-pentanone]
[1]; time interval 2.58-2.77 PVI
  3-pentanone concentration in recovered oil: 1.388 wt %
[1]; time interval 2.77-3.01 PVI
  3-pentanone concentration in recovered oil: 1.623 wt %
[1]; time interval 3.01-3.24 PVI
  3-pentanone concentration in recovered oil: 1.958 wt %
[1]; time interval 3.24-3.47 PVI
  3-pentanone concentration in recovered oil: 3.841 wt %
[1]; time interval 3.85-4.00 PVI
  3-pentanone concentration in recovered oil: 2.320 wt %
[1]; time interval 4.00-4.27 PVI
  3-pentanone concentration in recovered oil: 3.092 wt %
[2]
  3p concentration in the aqueous phase outside the core after the experiment: 0.8 wt %
  3p concentration in the recovered oleic phase after the experiment: 18.6 wt %

Reference: patent US12031087B2, “Oxygenated solvents for improved production of oil and gas” (Board of Regents, The University of Texas System, priority 2019, dated 2024)
